These are yes or no findings as the source states them, for the method shown. Binding seen in cells or lysates may run through a third protein. Binding can be weak; no strength is given. Tags and fused reporters may be left off the sequences shown.

The values that follow come from article doi:10.1101/648071 (bioRxiv, 2019).

For the experiment, the target named is T1, InvC, full-length, C-terminal Strep-tag (Salmonella Typhimurium strain SL1344) (UniProt P0A1B9).
T1 sequence: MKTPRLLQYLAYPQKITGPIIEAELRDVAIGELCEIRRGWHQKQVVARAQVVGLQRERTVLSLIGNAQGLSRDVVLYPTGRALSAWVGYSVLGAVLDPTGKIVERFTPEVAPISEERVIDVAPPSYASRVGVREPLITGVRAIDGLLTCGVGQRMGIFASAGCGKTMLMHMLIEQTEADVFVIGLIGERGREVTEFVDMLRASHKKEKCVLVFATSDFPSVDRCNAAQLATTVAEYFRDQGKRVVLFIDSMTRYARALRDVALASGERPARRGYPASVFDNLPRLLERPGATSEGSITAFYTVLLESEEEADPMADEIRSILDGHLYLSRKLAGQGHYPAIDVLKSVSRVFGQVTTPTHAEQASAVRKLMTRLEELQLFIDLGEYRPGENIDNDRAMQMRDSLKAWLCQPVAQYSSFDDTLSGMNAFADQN
The experiment can be described thus: pull-down.

As to “OrgB C-terminal half (residues 106-226), His-tagged (Salmonella Typhimurium strain SL1344) (domain or fragment)”, the binding result is “binds”.

For the substance “OrgB N-terminal half (residues 1-105), His-tagged (Salmonella Typhimurium strain SL1344) (domain or fragment)”, the binding entry was “binds weakly”.
